The text below walks through data of article PMC8152475 (Biomedicines, 2021).

Protein sequences, listed by entry. Tags and fused reporters are not part of them. Residues count along the entry.
UniProt P14598: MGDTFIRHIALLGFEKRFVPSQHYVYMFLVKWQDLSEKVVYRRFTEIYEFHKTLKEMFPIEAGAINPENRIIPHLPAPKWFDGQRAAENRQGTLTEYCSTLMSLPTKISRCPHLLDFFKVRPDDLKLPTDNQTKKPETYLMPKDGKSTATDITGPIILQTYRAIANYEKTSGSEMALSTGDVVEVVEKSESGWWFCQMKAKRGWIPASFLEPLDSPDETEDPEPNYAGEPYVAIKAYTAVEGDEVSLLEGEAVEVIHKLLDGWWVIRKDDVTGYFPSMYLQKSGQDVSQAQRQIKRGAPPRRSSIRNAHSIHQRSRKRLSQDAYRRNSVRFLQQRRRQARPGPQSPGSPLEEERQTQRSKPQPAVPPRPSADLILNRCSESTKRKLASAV
UniProt P19878: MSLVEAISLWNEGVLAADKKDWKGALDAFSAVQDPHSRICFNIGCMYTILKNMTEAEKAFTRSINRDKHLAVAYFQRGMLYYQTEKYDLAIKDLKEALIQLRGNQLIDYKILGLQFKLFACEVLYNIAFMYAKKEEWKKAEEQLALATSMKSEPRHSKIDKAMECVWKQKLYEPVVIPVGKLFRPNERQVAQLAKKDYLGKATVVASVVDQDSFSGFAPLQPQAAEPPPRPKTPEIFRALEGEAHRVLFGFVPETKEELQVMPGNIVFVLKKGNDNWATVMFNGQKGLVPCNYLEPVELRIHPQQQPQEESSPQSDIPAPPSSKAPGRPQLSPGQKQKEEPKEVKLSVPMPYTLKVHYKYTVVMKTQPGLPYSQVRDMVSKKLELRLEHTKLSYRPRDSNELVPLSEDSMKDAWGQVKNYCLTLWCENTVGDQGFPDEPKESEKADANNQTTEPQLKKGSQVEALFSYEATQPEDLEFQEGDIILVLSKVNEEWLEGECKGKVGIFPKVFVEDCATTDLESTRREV
UniProt P9WIN9, residues 24-228: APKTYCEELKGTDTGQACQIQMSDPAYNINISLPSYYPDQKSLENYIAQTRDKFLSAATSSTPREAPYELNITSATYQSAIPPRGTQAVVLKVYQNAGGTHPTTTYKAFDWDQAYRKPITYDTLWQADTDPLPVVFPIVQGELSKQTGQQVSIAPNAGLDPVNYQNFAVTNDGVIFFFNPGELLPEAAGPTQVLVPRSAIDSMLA

In assay [1] the target is Neutrophil cytosol factor 1 (p47phox), endogenous in THP-1 (human (endogenous in THP-1)) (UniProt P14598). The assay can be described thus: co-IP.
Assay [2] has as its target T1, GST-TBK1 (UniProt Q9UHD2).
T1 sequence: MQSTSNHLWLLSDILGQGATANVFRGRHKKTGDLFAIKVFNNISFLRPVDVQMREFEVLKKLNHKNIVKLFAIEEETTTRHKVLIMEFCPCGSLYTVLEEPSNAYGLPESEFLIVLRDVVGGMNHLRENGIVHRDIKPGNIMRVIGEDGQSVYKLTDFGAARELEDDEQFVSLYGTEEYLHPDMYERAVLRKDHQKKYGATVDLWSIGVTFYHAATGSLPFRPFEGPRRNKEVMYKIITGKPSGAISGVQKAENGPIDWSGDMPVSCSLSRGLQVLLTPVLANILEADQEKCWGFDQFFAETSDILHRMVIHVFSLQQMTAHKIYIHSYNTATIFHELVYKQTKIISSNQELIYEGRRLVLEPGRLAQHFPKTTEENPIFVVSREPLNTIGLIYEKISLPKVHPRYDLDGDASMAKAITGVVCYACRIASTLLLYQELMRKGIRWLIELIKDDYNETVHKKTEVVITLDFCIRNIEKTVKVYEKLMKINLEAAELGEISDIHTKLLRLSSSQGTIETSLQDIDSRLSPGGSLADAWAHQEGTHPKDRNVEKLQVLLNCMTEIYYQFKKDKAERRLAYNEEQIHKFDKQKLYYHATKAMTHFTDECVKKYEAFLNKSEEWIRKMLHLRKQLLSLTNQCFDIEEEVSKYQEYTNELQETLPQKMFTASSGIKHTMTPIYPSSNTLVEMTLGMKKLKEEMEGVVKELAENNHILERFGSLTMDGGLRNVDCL
The assay can be described thus: pull-down.

The target in assay [3] is T2, GST-HK2 (UniProt P52789).
T2 sequence: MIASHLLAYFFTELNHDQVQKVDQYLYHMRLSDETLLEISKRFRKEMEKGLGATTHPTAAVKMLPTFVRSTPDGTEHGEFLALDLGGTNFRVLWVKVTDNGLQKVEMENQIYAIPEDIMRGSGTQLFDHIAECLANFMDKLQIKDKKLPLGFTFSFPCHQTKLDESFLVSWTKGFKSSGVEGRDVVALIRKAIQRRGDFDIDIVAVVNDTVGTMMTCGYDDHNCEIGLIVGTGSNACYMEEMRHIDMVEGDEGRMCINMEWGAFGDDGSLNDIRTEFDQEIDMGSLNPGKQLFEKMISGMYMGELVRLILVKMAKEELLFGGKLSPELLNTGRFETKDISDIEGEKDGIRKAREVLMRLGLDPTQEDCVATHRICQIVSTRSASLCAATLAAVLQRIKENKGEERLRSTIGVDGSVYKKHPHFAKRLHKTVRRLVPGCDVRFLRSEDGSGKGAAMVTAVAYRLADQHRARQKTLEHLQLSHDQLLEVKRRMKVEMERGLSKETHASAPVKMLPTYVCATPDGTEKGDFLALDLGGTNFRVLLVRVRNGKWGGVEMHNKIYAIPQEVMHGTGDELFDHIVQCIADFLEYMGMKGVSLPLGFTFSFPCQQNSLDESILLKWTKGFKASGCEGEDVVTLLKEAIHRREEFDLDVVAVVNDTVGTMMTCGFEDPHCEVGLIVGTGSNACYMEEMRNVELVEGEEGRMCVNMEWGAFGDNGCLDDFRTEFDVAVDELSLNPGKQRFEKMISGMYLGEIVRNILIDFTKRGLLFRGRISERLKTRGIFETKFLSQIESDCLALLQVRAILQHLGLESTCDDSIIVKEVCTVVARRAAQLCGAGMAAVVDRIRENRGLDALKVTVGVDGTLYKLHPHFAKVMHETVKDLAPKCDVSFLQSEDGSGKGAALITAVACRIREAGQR
The assay can be described thus: pull-down.

Assay [4] addresses V5-p47phox (UniProt P14598). The assay can be described thus: co-IP.
Assay [5] concerns the target T3, Flag-TBK1 (UniProt Q9UHD2).
T3 sequence: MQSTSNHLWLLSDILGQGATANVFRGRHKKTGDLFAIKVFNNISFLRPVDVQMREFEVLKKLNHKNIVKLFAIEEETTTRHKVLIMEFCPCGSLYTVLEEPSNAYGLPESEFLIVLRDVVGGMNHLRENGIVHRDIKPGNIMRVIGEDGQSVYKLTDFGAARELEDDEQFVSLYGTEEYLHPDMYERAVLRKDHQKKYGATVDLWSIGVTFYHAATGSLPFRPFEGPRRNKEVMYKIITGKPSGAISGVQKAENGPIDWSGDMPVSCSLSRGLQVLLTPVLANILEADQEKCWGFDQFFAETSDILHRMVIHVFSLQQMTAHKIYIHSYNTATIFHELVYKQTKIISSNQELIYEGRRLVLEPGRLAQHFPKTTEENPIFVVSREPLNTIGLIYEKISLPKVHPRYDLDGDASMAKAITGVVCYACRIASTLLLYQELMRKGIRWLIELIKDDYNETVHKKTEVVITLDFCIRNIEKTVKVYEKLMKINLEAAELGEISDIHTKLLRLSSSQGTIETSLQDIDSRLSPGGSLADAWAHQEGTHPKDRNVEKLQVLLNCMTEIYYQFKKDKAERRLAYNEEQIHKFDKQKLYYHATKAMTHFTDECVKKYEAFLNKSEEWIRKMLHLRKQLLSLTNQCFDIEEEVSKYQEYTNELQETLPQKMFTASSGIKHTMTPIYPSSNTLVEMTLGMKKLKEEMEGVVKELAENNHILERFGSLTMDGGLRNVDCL
The assay can be described thus: co-IP.

The target of assay [6] is V5-p47phox (UniProt P14598). The assay can be described thus: co-IP. This is another data set of the same source.
The target in assay [7] is Neutrophil cytosol factor 1 (p47phox), endogenous in THP-1 (human (endogenous in THP-1)) (UniProt P14598). The assay can be described thus: co-IP. This is another data set of the same source.

Where two headings read alike, the source gives them in different places. Results are given in words; binding and its absence hold for the method and conditions named. In cells and extracts the contact can be indirect. Some results given as binding are weak or reduced against the parent protein; the word gives no strength. For some of these results: Tags and fused reporters may be left off the sequences shown.

Regarding “p67phox, endogenous in THP-1 (from UniProt P19878 1-526)”, the binding entry in assay [1] was “binds”.
Regarding Myc-MPT64 (from UniProt P9WIN9 24-228), the binding entry in assay [2] and in assay [3] was “binds” each time.
Consider “Flag-p67phox (from UniProt P19878 1-526)”, for which, in assay [4], the binding entry is “binds”.

B1: V5-IRF3 (protein, UniProt Q14653 1-427)
chain: MGTPKPRILPWLVSQLDLGQLEGVAWVNKSRTRFRIPWKHGLRQDAQQEDFGIFQAWAEATGAYVPGRDKPDLPTWKRNFRSALNRKEGLRLAEDRSKDPHDPHKIYEFVNSGVGDFSQPDTSPDTNGGGSTSDTQEDILDELLGNMVLAPLPDPGPPSLAVAPEPCPQPLRSPSLDNPTPFPNLGPSENPLKRLLVPGEEWEFEVTAFYRGRQVFQQTISCPEGLRLVGSEVGDRTLPGWPVTLPDPGMSLTDRGVMSYVRHVLSCLGGGLALWRAGQWLWAQRLGHCHTYWAVSEELLPNSGHGPDGEVPKDKEGGVFDLGPFIVDLITFTEGSGRSPRYALWFCVGESWPQDQPWTKRLVMVKVVPTCLRALVEMARVGGASSLENTVDLHISNSHPLSLTSDQYKAYLQDLVEGMDFQGPGES
On to B1, for which the binding result in assay [5] is recorded as “binds”.

B2: Flag-p22phox (protein, UniProt P13498 1-195)
chain: MGQIEWAMWANEQALASGLILITGGIVATAGRFTQWYFGAYSIVAGVFVCLLEYPRGKRKKGSTMERWGQKYMTAVVKLFGPFTRNYYVRAVLHLLLSVPAGFLLATILGTACLAIASGIYLLAAVRGEQWTPIEPKPRERPQIGGTIKQPPSNPPPRPPAEARKKPSEEEAAVAAGGPPGGPQVNPIPVTDEVV
As for B2, the binding entry in assay [6] was “binds”.

B3: p22phox, endogenous in THP-1 (protein, UniProt P13498 1-195)
chain: MGQIEWAMWANEQALASGLILITGGIVATAGRFTQWYFGAYSIVAGVFVCLLEYPRGKRKKGSTMERWGQKYMTAVVKLFGPFTRNYYVRAVLHLLLSVPAGFLLATILGTACLAIASGIYLLAAVRGEQWTPIEPKPRERPQIGGTIKQPPSNPPPRPPAEARKKPSEEEAAVAAGGPPGGPQVNPIPVTDEVV
Take B3: the binding entry in assay [7] was “binds”.
